These results are taken from article PMC7862700.

Some of the results follow. The exact form of the protein is not confirmed.

The target in the experiment is T1, ETS1 (UniProt P14921).
T1 sequence: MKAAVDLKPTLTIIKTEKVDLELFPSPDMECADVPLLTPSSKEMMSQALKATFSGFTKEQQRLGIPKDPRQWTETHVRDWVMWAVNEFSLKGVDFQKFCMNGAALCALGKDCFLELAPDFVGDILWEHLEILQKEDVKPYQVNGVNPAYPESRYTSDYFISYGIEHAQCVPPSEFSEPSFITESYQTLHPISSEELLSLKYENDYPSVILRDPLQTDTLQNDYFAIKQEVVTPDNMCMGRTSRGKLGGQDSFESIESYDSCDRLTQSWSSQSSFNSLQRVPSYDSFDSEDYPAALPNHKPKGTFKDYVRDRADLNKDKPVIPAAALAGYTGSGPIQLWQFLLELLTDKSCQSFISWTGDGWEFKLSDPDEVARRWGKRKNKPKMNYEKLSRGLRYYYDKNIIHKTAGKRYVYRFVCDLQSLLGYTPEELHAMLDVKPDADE
Put plainly: DAPPL (digital affinity profiling via proximity ligation, sequencing). To be noted: 10 mM Tris-HCl pH 7.5, 50 mM NaCl, 1 mM DTT, 4% glycerol, room temperature, 30 min; GST-TFs on glutathione beads, 16-mer random dsDNA library, 0.1% …; high values mean tight binding; double strand, one strand shown; scale: fold enrichment (6-mer frequency, TF over GST control).

Take TTGACT: the binding signal was determined as 1.23. For the sequence TGTTTA, the binding signal was 1.15. ACCACG came in with a binding signal of 1.05. Consider TTCTAG, for which the binding signal amounted to 1.21. CCGTTC gave a binding signal of 1.56. In turn, CGTTGC gave a binding signal of 1.09. Turning to GATGTC, the binding signal came to 1.23. CCCCCT: the binding signal came to 1.13. CATGGT came in with a binding signal of 1.19. For the sequence TGGACT, the binding signal was 1.18.

As for CATCCT, the binding signal was determined as 1.65.

ATTTGT: the binding signal was 1.35. As for GTTAAT, the binding signal came out at 1.04. As to AATAGT, the binding signal amounted to 1.23. Take AAATAG: the binding signal was 1.13. The sequence CCATCC displayed a binding signal of 1.24. As for AGCATT, the binding signal is 0.943.

The sequence CAATGC gave a binding signal of 1.28. AGGACC came in with a binding signal of 1.06.

As to ACAACC, the binding signal came to 1.24. For AATGTA, the binding signal is 1.25. On to TCCAAA, for which the binding signal amounted to 1.22. Consider CACCTT, for which the binding signal is 1.25. Next, TTGTTA: 1.43. As to TAATCC, the binding signal is 1.21.

CCTTAG gave a binding signal of 1.24. Next, AGTAAT: 1.05; ACCCAA: 1.15. TAGTTA had a binding signal of 1.23. Sequence TCTCCA returned a binding signal of 1.56.

TATGCT came in with a binding signal of 1.24. As for TTTCTG, the binding signal was 1.39. For CCCTCT, the binding signal was found to be 1.39. Regarding AGTGCT, the binding signal was 1.4. On to AGGTCT, for which the binding signal stood at 1.18. Turning to TTGCCC, the binding signal amounted to 1.38. The sequence AGCACA returned a binding signal of 1.08. TAGTAG returned a binding signal of 0.991. GACTAC yielded a binding signal of 1.07. The sequence ATTGGG had a binding signal of 1.28.

For the sequence CACCTC, the binding signal is 1.15.

Take TAAGCC: the binding signal worked out at 1.15. Sequence GTTACA came in with a binding signal of 1.15. On to CCGGCC, for which the binding signal amounted to 1.15. CACCCT had a binding signal of 1.17. The figure for CGTCAC is 1.27. GCTCTT yielded a binding signal of 1.42. For the sequence CTTACT, the binding signal is 1.27.

Take GAAGTG: the binding signal amounted to 1.48. For CCAAAT, the binding signal stood at 1.05. CTAAAT gave a binding signal of 1.42. Regarding CCGGTG, the binding signal stood at 0.936. Consider CACCCG, for which the binding signal is 1.14.

In turn, CTGGCT returned a binding signal of 1.26. As for TTTTTG, the binding signal came out at 1.42.

ACCCTT: the binding signal was determined as 1.24.

Sequence GATAGC yielded a binding signal of 1.07.

Take AAGGGC: the binding signal was found to be 1.09.

In turn, GCGATC returned a binding signal of 1.07. The figure for TAGATG is 1.29; for GCTCTC it is 1.35.

As for ATGGGC, the binding signal amounted to 1.29. For TAGTGC, the binding signal was found to be 1.01. In turn, CGTACC registered a binding signal of 1.19. Sequence TGTATT showed a binding signal of 1.44.

TGACAA yielded a binding signal of 1.28. Take TTAGCT: the binding signal is 1.26.

Take TCAACG: the binding signal stood at 1.08. GGTAAT came in with a binding signal of 1.17. Turning to AGTTTC, the binding signal is 1.26.

Sequence CTCCAC had a binding signal of 1.48. ACGGCA displayed a binding signal of 1.12. As to TTTCAC, the binding signal worked out at 1.32. TTCGTC yielded a binding signal of 1.27. GGACAT yielded a binding signal of 1.14. In turn, TATTGA gave a binding signal of 1.13. The sequence TTTCAT displayed a binding signal of 1.17.

The sequence GTTGTT yielded a binding signal of 1.14. On to TAAATG, for which the binding signal stood at 1.24.

ATATCC: the binding signal is 2.69. The sequence ATTCCA gave a binding signal of 1.23. The sequence CATCTC came in with a binding signal of 1.28. Turning to CATTAC, the binding signal is 1.08.

Consider CAACTC, for which the binding signal worked out at 1.35.

Regarding AAAATG, the binding signal amounted to 1.24. In the case of TATGGG, the binding signal was 1.18. GGACTT registered a binding signal of 1.03. GGATGC: the binding signal amounted to 1.19. Sequence CCTAGC returned a binding signal of 1.24. Next, GGAACT: 1.84; TCCAAG: 1.09; AGGTAA: 0.953. As to TCTCTC, the binding signal was 1.32. On to ACCGCT, for which the binding signal came out at 1.01. In the case of TTCCGC, the binding signal came to 3.09. In turn, CCCTTG gave a binding signal of 1.3. Next, TACTCA: 1.15; TACAAA: 1.21; CTTCAC: 1.43. The sequence ACGTAC gave a binding signal of 1.21.

TTACGT: the binding signal came to 1.15.

On to TGAACA, for which the binding signal came to 1.28.

As to CTCGAA, the binding signal was found to be 1.27.

As for CGTCTG, the binding signal is 1.03.

As for CGTACA, the binding signal is 1.21.

For CTATTG, the binding signal stood at 1.23. CGTTTT came in with a binding signal of 1.21. The figure for CACCAA is 1.08; for AAATCT it is 1.34. The figure for CCGTCA is 1.1. TTGTAA had a binding signal of 1.39.

For the sequence AACCCC, the binding signal is 1.23. As to CCACAC, the binding signal is 1.

As to TCCTAA, the binding signal worked out at 1.49. GCGCCC: the binding signal is 1.17.

AACTAG returned a binding signal of 1.08.

For AAACTG, the binding signal was found to be 1.26. Turning to GTAGCA, the binding signal was 0.969. Sequence AGCTAT showed a binding signal of 1.18. Sequence CGGATG came in with a binding signal of 1.56.
